These results are taken from patent US20130001162A1, “Apparatus, System, and Method for Forward Osmosis in Water Reuse” (priority 2011, published 2013).

This data set in a line: Rejection of spiked organic micropollutants by submerged plate and frame FO membrane, SWWE feed, seawater draw solution. The settings on record: for concentration, DS diluted: diluted seawater draw solution after FO, composite sample 3rd and 4th day of cycles.

As to `C1COCCO1` [1,4-dioxane], the “concentration, DS diluted” value is 4.3 µg/L.
Still for that read-out and setting: the figure for `C#C[C@]1(O)CC[C@H]2[C@@H]3CCc4cc(O)ccc4[C@H]3CC[C@@]21C` [17α-ethynilestradiol] is 1.5 µg/L.
On the same count and under the same terms, the figure for `CC(=O)Nc1ccc(O)cc1` [Acetaminophen] is 5.9 µg/L.
Consider `CC(C)(c1ccc(O)cc1)c1ccc(O)cc1` [Bisphenol A], for which the “concentration, DS diluted” value amounted to 7.0 µg/L. Moreover, where the note is “SWWE feed, seawater draw solution, calculated with equation 3”, the “Rejection by FO membrane” value is recorded as 8-39%.
Take `Cn1c(=O)c2c(ncn2C)n(C)c1=O` [Caffeine]: the “concentration, DS diluted” value was found to be 3.2 µg/L.
The same measure, in the same setting: the figure for `NC(=O)N1c2ccccc2C=Cc2ccccc21` [Carbamazepine] is 2.5 µg/L; for `CC(C(=O)O)c1cccc(Oc2ccccc2)c1` (stereo not drawn) [Fenoprofen] it is 0.67 µg/L; for `Cc1ccc(C)c(OCCCC(C)(C)C(=O)O)c1` [Gemfibrozil] it is 0.62 µg/L.
On the same count and under the same terms, next, `CC(C(=O)O)c1cccc(C(=O)c2ccccc2)c1` (stereo not drawn) [Ketoprofen]: 0.39 µg/L; `Cc1ncc([N+](=O)[O-])n1CCO` [Metronidazole]: 4.1 µg/L; `COc1ccc2cc([C@H](C)C(=O)O)ccc2c1` [Naproxen]: 0.62 µg/L.
